The values below come from the odorant receptor screen of Mainland et al. (2015).

Where “and” joins values, the source holds several entries; their conditions need not be identical. Equal values may be shown once. The list shows a part of the results. Each value is one well over the wells without odorant, computed here; the data are noisy.

The assay concerns OR10C1 F60L/P174Q/M246V clone 1366. Description: odorant receptor activation (CRE luciferase / Renilla) (fold of no-odor wells); higher = more activation. To be noted: 100 µM.
For the compound `CC1CCC(C(C)C)C(O)C1` (single isomer, unassigned; (-)) [(-)-menthol], the odorant receptor activation was found to be 0.636.

The compound `C=CCSCC=C` [diallyl sulfide] came in with an odorant receptor activation of 0.99.

`CC(C)=CCCC(C)=CC=O` [citral] returned an odorant receptor activation of 0.231.

For `COc1cc(C)ccc1O` [2-methoxy-4-methylphenol], the odorant receptor activation was found to be 1.57.

The compound `CC(=O)OC(C)(C)C1CC=C(C)CC1` (stereo not drawn) [terpinyl acetate] came in with an odorant receptor activation of 0.837.

For the compound `CCCCCCCCC=O` [nonyl aldehyde], the odorant receptor activation came out at 0.934.

With `O=C1CCCCCCCCCCCC(=O)OCCO1` [ethylene brassylate], the odorant receptor activation is 1.97.

Compound `CCCCCCCCOC(C)=O` [octyl acetate] had an odorant receptor activation of 1.01.

The compound `c1ccc(Oc2ccccc2)cc1` [diphenyl ether] came in with an odorant receptor activation of 0.859.

`CCCCCCCC=CC=O` [2-decenal] returned an odorant receptor activation of 1.75.

As for `CC(C)C(=O)O` [isobutyric acid], the odorant receptor activation is 0.78.

Consider `CCCCCCOC(=O)CCC` [hexyl butyrate], for which the odorant receptor activation was 0.833.

Take `C=CCc1ccc(O)c(OC)c1` [eugenol]: the odorant receptor activation was 1.26 and 1.37.

Consider `CC(=O)OC1CC2CCC1(C)C2(C)C` (stereo not drawn) [isobornyl acetate], for which the odorant receptor activation was determined as 0.808.

Turning to `CC(C)C=O` [isobutyraldehyde], the odorant receptor activation is 0.924.

Compound `CCCCCCCCCCC=O` [undecanal] displayed an odorant receptor activation of 0.968.

With `CC1=CCC(C(C)(C)O)CC1` (stereo not drawn) [terpineol], the odorant receptor activation stood at 1.02.

Turning to `COC(=O)c1ccccc1O` [methyl salicylate], the odorant receptor activation is 0.75.

`C=C(C)C1CC=C(C)C(=O)C1` (stereo not drawn) [r-carvone] displayed an odorant receptor activation of 1.

For the compound `CCCCO` [1-butanol], the odorant receptor activation worked out at 1.69.

Take `CCC1(O)C2(C)CCC(C2)C1(C)C` (stereo not drawn) [2-ethylfenchol]: the odorant receptor activation was found to be 0.614.

As for `CC12CCC(C1)C(C)(C)C2=O` (stereo not drawn) [fenchone], the odorant receptor activation turned out to be 1.

With `CCCCCCCC=O` [octyl aldehyde], the odorant receptor activation stood at 0.799.

In the case of `CC(C)CCC(=O)O` [4-methylvaleric acid], the odorant receptor activation stood at 1.8.

Compound `C=CCc1ccc(OC)c(OC)c1` [eugenol methyl ether] gave an odorant receptor activation of 1.14.

In the case of `O=CCc1ccccc1` [phenyl acetaldehyde], the odorant receptor activation turned out to be 1.5.

With `CC1CCC(C(C)C)C(O)C1` (single isomer, unassigned; (+)) [(+)-menthol], the odorant receptor activation was 2.19.

In turn, `C=CCc1ccc(OC(C)=O)c(OC)c1` [eugenol acetate] displayed an odorant receptor activation of 1.39.
